From patent US20090269840A1 (UCB, published 2009)
Results are given in words; binding and its absence hold for the method and conditions named. Some binding calls cover weakened binding; strength is not graded here.

Chains of the proteins cited; added tags and fusions are not shown. Residues count along the entry.
UniProt P35968, residues 20-764: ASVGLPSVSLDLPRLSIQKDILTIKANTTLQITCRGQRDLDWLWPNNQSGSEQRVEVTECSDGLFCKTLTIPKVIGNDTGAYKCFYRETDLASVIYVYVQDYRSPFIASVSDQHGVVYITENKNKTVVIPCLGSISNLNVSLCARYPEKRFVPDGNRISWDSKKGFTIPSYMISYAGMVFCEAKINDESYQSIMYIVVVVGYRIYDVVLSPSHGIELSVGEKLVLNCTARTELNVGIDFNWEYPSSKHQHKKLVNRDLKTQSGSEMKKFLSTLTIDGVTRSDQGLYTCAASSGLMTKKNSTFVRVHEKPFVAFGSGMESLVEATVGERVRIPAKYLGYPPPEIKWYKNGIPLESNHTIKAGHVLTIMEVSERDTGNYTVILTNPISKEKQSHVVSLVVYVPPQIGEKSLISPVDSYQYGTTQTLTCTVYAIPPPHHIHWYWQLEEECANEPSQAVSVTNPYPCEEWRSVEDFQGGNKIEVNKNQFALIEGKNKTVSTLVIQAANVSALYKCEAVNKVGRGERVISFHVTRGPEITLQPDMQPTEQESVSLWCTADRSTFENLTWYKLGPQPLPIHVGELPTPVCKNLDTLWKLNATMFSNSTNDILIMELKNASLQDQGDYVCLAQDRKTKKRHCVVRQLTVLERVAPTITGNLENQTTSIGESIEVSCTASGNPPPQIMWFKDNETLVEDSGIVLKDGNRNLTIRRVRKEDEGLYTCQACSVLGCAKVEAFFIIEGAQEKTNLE

B1: mouse monoclonal antibody VR165 (antibody, mouse IgG2a, V domains shown)
VH: EVQLVESGGDLVKPGGSLKLSCAASGFTFSSYGMSWVRQTPDKRLQWVATITSGGSYTYYPDTVKGRFTISRDNAENTLYLQMSSLKSEDTAMYYCVRIGEDALDYWGQGTSVTVSS
VL: DIQMTQSPSSLSASLGERVSLTCRASQDIAGSLNWLRQEPDGTIKRLIYATSSLDSGVPKRFSGSRSGSDYSLTISSLESEDFVDYYCLQYGSFPPTFGGGSKLEIKR
notes: also called mIgG; murine IgG
B2: graft gL3gH3 antibody (g165), whole antibody from CHO cells (antibody, V domains shown)
VH: EVQLVESGGGLVQPGGSLRLSCAASGFTFSSYGMSWVRQAPGKGLEWVATITSGGSYTYYVDSVKGRFTISRDNAKNTLYLQMNSLRAEDTAVYYCVRIGEDALDYWGQGTLVTVSS
VL: DIQMTQSPSSLSASVGDRVTITCRASQDIAGSLNWLQQKPGKAIKRLIYATSSLDSGVPKRFSGSRSGSDYTLTISSLQPEDFATYYCLQYGSFPPTFGQGTKVEIKR

Columns and labels:
[1] = biological target: KDR (form used in the ELISA, radioimmunoassay and BIAcore of the graft comparison not stated) (UniProt P35968); test: KDR binding ELISA and radioimmunoassay of inhibition of labeled VEGF binding to KDR
[2] = biological target: KDR (form used in the ELISA, radioimmunoassay and BIAcore of the graft comparison not stated) (UniProt P35968); test: BIAcore assay of KDR binding

Binder | binding [1] | binding [2]
B1 | binds | –
B2 | – | binds
